Data as given in patent US5411707A, “Vacuum extractor incorporating a condenser column” (priority 1994, dated 1995).
Where two headings read alike, the source gives them in different places.

Legend:
[1] = Recovery of volatile organic analytes from spiked water and cod liver oil/water emulsion (Table 3); conditions: 10 min, condenser -10° C., ± one sigma; for Recovery, H2O/Oil 20 mL: 1 g cod liver oil and 20 ml water emulsion; for Recovery, H2O/Oil 5 mL: 1 gram cod liver oil and 5 ml water emulsion; for Recovery, Water 5 mL: 5 mL water, relative to internal standard d3-vinylchloride; for Recovery, Water 20 mL: 20 mL water, relative to d3-vinylchloride
[2] = Recovery of volatile organic analytes from spiked soil (Table 5); conditions: 50 ppb, condenser -10° C.; for Recovery, Soil/Oil Water: 5 g soil + 1 g cod liver oil + water slurry; for Recovery, Soil/Oil: 5 g soil + 1 g cod liver oil, spiked using 0.2 ml water; for Recovery, Soil/Water: 5 g soil + 5 ml water slurry, 10 min
[3] = Method detection limits for volatile organic analytes in water (Table 6); conditions: 5 mL water, 4 ppb; for Method Detection Limit, External Standard Method: average of three nonconsecutive-day studies; for Method Detection Limit, Internal Standard Method: d3-vinylchloride internal standard
[4] = Method detection limits for volatile organic analytes in soil (Table 7); conditions: 4 ppb, average of three nonconsecutive-day studies, values marked ^c: MDL exceed concentration studies
[5] = 1 gram cod liver oil, composite of 25, 50 and 200 ppb spikes, 10 min, condenser -10° C.

Row | SMILES | Recovery, H2O/Oil 20 mL [1] [%] | Recovery, H2O/Oil 5 mL [1] [%] | Recovery, Water 5 mL [1] [%] | Recovery, Water 20 mL [1] [%] | Recovery, Soil/Oil Water [2] [%] | Recovery, Soil/Oil [2] [%] | Recovery, Soil/Water [2] [%] | Method Detection Limit, External Standard Method [3] [PPb] | Method Detection Limit, Internal Standard Method [3] [PPb] | MDL, External Standard Method [4] [ppb] | MDL, Internal Standard Method [4] [ppb] | Oil Recovery [5] [%] | Oil Recovery
1 | C=CCl [Vinyl Chloride] | 87 ± 27 | 118 ± 28 | 105 ± 9 | 98 ± 19 | 79 ± 30 | 79 ± 23 | 60 ± 25 | 4.0 | 2.6 | 7.1 | 6.3 | 81 ± 12 | –
2 | C=Cc1ccccc1 [Styrene] | 35 ± 7 | 34 ± 9 | 89 ± 9 | 85 ± 21 | 32 ± 4 | 39 ± 16 | 66 ± 19 | 2.0 | 1.8 | 2.5 | 1.3 | 21 ± 4 | –
3 | ClC=C(Cl)Cl [Trichloroethene] | 62 ± 9 | 61 ± 9 | 86 ± 8 | 82 ± 18 | 48 ± 7 | 76 ± 16 | 52 ± 16 | 2.5 | 1.7 | 3.0 | 1.7 | 50 ± 7 | –
4 | ClC(Cl)=C(Cl)Cl [Tetrachloroethene] | 46 ± 8 | 47 ± 11 | 91 ± 11 | 85 ± 19 | 43 ± 6 | 62 ± 17 | 56 ± 16 | 1.8 | 1.8 | 2.6 | 1.4 | 30 ± 5 | –
5 | ClC(Cl)Cl [Chloroform] | 70 ± 9 | 75 ± 12 | 94 ± 14 | 86 ± 16 | 126 ± 4 | – | 114 ± 28 | 2.7 | 2.5 | 2.6 | 1.9 | – | 60 ± 7
6 | ClC(Cl)Br [Bromodichloromethane] | 58 ± 17 | 66 ± 12 | 92 ± 11 | 91 ± 17 | 50 ± 4 | 69 ± 25 | 49 ± 12 | 2.0 | 2.1 | 2.3 | 1.4 | 41 ± 5 | –
7 | ClCC(Cl)Cl [1,1,2-Trichloroethane] | 81 ± 22 | 51 ± 8 | 87 ± 14 | 83 ± 20 | 47 ± 6 | 56 ± 17 | 66 ± 20 | 2.7 | 2.4 | 2.8 | 1.5 | 29 ± 7 | –
8 | Cc1ccccc1C [Ortho Xylene] | 42 ± 10 | 34 ± 9 | 86 ± 10 | 83 ± 19 | 48 ± 8 | 56 ± 16 | 66 ± 20 | 2.4 | 1.9 | 4.1 | 3.5 | – | 45 ± 19
9 | Cc1ccccc1 [Toluene] | 50 ± 9 | 51 ± 10 | 89 ± 11 | 81 ± 24 | – | – | 50 ± 13 | – | – | – | – | – | 48 ± 9
10 | C=COC(C)=O [Vinyl Acetate] | 74 ± 11 | 87 ± 21 | 72 ± 13 | 82 ± 22 | – | – | 83 ± 12 | – | – | – | – | 114 ± 33 | –
